In the supplement of paper PMC10849652:
The other results are listed elsewhere or left out.

Amino acid sequences for entries named in this document (tags omitted). A change or cut given only in a name is not applied to a line headed by its entry.
UniProt P10620: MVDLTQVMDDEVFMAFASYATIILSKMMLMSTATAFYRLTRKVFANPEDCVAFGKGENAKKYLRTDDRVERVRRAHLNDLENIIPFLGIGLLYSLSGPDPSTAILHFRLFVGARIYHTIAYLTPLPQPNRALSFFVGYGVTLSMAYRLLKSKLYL
UniProt Q9BU76: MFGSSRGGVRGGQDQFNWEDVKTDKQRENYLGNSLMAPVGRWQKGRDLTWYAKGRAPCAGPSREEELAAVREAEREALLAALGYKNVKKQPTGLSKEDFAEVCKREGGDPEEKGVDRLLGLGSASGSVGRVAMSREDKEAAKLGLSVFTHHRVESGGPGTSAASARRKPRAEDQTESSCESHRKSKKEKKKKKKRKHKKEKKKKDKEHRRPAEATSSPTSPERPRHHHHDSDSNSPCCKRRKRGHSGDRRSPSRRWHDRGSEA
UniProt Q9UHC7: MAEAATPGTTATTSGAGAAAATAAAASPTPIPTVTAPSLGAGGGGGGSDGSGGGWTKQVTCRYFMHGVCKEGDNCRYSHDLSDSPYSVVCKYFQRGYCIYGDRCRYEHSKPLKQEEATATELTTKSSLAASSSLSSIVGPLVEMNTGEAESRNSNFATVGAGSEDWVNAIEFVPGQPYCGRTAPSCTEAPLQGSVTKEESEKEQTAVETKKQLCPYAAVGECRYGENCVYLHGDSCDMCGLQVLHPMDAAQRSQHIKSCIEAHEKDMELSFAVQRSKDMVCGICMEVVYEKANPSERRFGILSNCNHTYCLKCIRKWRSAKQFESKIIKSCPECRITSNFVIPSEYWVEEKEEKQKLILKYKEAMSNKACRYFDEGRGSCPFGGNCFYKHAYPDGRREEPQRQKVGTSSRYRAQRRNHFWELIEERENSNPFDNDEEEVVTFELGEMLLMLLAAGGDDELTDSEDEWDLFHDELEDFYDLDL
UniProt Q9UBU8, whole entry, looked up: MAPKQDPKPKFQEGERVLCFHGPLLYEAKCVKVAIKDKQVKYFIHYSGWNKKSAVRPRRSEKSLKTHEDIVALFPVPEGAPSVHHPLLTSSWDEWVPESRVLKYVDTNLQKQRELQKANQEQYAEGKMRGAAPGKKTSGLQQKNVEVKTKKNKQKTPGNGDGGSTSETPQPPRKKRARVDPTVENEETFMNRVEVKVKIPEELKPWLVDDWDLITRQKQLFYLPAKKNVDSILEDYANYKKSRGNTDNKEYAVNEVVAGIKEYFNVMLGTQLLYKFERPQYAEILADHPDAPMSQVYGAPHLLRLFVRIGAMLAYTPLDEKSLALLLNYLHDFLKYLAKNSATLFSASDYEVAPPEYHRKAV
UniProt Q7Z3K6: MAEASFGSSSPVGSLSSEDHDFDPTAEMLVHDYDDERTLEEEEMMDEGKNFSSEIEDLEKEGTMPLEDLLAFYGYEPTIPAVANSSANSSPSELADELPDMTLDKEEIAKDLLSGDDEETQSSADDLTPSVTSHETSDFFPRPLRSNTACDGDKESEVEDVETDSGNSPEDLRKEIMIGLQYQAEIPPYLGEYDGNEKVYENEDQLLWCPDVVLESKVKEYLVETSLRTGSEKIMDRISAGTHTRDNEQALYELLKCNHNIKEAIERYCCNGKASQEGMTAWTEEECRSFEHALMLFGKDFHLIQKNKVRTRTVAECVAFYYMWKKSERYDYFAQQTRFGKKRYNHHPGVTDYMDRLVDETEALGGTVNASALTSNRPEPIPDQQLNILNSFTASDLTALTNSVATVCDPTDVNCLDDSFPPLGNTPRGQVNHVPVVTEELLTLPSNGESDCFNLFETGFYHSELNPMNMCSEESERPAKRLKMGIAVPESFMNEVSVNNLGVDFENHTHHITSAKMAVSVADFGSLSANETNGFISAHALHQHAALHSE
UniProt Q9UL63, whole entry, looked up: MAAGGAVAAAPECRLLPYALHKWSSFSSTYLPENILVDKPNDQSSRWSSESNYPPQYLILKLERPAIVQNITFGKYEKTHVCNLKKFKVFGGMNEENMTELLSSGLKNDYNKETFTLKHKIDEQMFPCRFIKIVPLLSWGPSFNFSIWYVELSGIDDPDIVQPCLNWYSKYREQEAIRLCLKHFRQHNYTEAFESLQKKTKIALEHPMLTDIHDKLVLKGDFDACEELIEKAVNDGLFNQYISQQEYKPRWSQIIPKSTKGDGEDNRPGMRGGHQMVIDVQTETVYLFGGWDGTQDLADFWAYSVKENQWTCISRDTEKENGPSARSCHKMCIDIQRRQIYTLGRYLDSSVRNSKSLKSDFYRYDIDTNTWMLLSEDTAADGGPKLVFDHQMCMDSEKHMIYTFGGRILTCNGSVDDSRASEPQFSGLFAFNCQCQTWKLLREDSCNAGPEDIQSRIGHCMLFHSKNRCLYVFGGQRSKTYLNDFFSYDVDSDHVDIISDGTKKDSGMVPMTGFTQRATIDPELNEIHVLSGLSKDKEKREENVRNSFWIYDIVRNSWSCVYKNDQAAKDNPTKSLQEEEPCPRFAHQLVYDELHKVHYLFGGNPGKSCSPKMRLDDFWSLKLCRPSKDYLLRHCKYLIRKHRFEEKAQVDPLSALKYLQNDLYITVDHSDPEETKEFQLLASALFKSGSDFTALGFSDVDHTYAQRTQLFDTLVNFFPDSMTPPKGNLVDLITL
UniProt Q9HAP2: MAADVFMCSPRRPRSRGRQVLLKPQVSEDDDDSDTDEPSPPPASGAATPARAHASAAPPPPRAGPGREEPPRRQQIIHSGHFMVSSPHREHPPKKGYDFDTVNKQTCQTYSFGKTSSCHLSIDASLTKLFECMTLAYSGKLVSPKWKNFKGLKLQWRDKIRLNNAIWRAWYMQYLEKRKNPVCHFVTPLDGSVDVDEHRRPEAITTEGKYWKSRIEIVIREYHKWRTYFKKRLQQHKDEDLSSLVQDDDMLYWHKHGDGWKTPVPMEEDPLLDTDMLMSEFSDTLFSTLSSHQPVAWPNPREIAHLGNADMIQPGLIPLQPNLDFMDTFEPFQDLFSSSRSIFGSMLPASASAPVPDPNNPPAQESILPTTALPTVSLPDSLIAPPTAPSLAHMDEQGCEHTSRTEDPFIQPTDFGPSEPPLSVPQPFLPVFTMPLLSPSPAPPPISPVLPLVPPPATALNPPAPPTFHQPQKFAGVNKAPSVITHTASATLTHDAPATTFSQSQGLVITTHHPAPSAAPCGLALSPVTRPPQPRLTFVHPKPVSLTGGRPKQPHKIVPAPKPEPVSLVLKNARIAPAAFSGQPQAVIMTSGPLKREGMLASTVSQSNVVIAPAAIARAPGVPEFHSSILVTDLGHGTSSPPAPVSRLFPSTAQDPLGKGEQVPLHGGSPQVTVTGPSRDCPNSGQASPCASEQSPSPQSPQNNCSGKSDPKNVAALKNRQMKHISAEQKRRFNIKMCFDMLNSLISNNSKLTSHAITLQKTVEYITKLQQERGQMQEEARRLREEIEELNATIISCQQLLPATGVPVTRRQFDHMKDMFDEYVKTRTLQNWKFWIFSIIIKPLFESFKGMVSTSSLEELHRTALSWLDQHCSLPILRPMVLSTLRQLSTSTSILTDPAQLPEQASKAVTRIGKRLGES
UniProt Q8N3F8: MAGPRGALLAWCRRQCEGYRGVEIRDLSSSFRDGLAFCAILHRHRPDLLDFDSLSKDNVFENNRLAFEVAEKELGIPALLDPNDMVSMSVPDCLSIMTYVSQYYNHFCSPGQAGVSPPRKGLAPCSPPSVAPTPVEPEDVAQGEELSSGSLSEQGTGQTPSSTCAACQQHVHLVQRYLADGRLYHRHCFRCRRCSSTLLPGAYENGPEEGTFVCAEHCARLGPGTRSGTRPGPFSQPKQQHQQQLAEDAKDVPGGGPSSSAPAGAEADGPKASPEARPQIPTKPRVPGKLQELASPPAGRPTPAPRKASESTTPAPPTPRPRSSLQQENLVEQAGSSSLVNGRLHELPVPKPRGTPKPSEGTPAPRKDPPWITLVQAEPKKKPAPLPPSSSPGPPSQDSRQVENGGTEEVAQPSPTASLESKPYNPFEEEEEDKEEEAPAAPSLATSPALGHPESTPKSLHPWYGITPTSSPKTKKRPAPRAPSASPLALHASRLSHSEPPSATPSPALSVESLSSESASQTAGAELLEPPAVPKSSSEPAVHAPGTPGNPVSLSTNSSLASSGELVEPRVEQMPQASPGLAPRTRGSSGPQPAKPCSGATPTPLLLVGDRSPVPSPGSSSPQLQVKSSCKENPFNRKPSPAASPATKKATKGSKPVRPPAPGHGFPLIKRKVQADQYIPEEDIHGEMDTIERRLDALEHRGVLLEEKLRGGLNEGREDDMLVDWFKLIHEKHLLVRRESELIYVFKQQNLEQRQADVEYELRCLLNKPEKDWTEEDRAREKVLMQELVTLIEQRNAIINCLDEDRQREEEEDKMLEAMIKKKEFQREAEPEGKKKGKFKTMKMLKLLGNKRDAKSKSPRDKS
UniProt Q86TA1: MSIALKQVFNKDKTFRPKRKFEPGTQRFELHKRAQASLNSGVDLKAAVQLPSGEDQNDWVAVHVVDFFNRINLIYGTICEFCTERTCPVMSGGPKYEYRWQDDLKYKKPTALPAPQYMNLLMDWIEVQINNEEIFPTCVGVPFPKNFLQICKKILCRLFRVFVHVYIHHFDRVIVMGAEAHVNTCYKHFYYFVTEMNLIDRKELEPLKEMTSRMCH
UniProt Q9NZB8: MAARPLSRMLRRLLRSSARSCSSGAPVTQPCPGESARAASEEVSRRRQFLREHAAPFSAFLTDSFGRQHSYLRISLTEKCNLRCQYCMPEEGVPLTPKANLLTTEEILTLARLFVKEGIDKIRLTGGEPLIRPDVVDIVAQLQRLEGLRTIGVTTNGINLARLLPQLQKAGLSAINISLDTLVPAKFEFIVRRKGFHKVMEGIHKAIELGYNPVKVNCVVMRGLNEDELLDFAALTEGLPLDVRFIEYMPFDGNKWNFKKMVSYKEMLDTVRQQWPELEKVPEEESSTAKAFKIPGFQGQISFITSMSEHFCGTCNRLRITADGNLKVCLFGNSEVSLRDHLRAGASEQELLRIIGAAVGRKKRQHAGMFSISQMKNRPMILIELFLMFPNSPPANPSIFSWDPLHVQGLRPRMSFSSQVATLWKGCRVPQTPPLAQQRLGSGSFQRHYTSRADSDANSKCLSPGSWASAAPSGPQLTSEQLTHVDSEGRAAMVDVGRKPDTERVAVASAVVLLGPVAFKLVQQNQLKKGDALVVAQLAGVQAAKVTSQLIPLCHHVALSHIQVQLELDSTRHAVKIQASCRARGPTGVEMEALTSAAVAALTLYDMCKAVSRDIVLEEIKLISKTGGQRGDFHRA
UniProt Q8WV92, whole entry, looked up: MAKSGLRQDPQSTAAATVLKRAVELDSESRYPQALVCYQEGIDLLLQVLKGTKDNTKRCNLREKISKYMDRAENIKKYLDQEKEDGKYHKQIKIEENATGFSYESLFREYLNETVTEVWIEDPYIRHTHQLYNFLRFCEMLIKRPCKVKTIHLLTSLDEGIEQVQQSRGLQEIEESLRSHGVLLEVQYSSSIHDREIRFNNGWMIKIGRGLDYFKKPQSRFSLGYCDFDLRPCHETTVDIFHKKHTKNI
UniProt P26572: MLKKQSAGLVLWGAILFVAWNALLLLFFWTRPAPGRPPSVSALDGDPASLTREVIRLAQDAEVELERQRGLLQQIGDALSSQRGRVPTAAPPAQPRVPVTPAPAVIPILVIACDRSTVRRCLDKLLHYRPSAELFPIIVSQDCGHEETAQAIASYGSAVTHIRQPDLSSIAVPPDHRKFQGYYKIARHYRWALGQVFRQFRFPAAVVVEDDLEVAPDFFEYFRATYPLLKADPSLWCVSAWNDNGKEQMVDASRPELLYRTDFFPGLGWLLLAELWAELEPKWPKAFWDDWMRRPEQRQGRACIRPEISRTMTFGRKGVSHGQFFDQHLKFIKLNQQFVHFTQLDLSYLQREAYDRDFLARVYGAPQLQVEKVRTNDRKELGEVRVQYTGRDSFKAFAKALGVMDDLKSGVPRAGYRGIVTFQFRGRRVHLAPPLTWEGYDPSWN
UniProt Q96FF7: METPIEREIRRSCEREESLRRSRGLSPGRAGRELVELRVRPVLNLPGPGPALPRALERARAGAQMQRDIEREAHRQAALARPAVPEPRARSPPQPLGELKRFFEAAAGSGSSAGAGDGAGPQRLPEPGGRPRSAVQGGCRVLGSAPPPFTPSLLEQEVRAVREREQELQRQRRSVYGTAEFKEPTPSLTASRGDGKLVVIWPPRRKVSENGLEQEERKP
UniProt O95822: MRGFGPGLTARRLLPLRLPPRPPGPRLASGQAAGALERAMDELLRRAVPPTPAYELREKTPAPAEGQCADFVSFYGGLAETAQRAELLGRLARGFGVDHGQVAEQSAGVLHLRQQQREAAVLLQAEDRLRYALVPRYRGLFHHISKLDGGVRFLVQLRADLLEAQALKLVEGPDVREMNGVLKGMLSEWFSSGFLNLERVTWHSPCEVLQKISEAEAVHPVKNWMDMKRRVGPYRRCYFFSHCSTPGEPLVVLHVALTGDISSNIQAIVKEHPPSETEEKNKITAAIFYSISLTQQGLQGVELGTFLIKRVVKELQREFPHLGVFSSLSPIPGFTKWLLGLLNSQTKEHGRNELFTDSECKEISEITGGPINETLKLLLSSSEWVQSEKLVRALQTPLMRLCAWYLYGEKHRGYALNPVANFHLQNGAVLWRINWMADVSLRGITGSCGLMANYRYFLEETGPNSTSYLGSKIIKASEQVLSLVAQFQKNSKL

Tests used:
Test in all cases: log2 fold change, soluble protein after heating vs DMSO (PISA); higher = thermal stabilisation; K562 lysate, 10 uM; active = over 0.2 and 3.5 SD of the protein, either way, in both replicates (recomputed)
[1] = compound: C1=CC=C(C=C1)[C@H](COC2=CC3=C(C=C2)NC(=O)N3)NC(=O)C4=CC=CN(C4=O)CC5=CC(=C(C=C5)F)F
In short: (§1)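 To prepare the extract, K562 pellets were dounce-homogenised in PBS pH 7.4 with 1 mM MgCl2, giving crude material at 1 mg/mL protein. This was treated with 10 μM compound for 30 min, then heated in aliquots for 3 min over 48°C-58°C before pooling and addition of NP-40 to 0.5% at 4°C. Centrifugation at 21,000xg for 90 min left soluble protein in the supernatant, which TMTpro 16plex LC-MS/MS quantified with equalised channel sums. Results are log-two fold changes in thermal stability compared with solvent controls, from duplicates.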

[2] = compound: CC1=C(SC2=C1C(=N[C@H](C3=NN=C(N32)C)CC(=O)N)C4=CC=C(C=C4)Cl)C
In short: as §1

[3] = compound: CC1=C2C(=CC=C1)N=C(N(C2=O)C3=CC=CC=C3C)CN4C=NC5=C(N=CN=C54)N
In short: as §1

[4] = compound: Cc1sc2c(c1C)C(c1ccc(Cl)cc1)=N[C@@H](CC(=O)OC(C)(C)C)c1nnc(C)n1-2
In short: as §1

[5] = compound: c1ccc([C@@H]2C[C@H]2NC2CCNCC2)cc1
In short: as §1

Measured: log2 fold change

MGST1 (UniProt P10620)
inactive: [1] -0.08 | [2] 0.005 | [3] 0 | [4] -0.056 | [5] 0.022

MLF2 (UniProt Q15773)
inactive: [1] 0.031 | [2] 0.076 | [3] 0.015 | [4] 0.059 | [5] -0.013

MMTAG2 (UniProt Q9BU76)
inactive: [1] -0.002 | [2] -0.017 | [3] 0.046 | [4] 0.005 | [5] 0.087

MRGBP (UniProt Q9NV56)
inactive: [1] 0.001 | [2] -0.086 | [3] -0.076 | [4] -0.022 | [5] -0.115

MPP1 (UniProt Q00013)
inactive: [1] -0.01 | [2] 0.006 | [3] 0.024 | [4] 0.016 | [5] 0.044

MKRN1 (UniProt Q9UHC7)
inactive: [1] 0.049 | [2] -0.004 | [3] 0.01 | [4] 0.037 | [5] -0.017

MORF4L1 isoform 2 (UniProt Q9UBU8)
inactive: [1] 0.012 | [2] -0.03 | [3] -0.029 | [4] -0.041 | [5] -0.035

MIER3 isoform 2 (UniProt Q7Z3K6)
inactive: [1] 0.211 | [2] 0.295 | [3] 0.019 | [4] 0.034 | [5] 0.06

MKLN1 (UniProt Q9UL63)
inactive: [1] 0.011 | [2] 0.039 | [3] 0.005 | [4] 0.031 | [5] -0.04

MLXIP (UniProt Q9HAP2)
inactive: [1] -0.063 | [2] 0.005 | [3] 0.018 | [4] 0.031 | [5] -0.025

MORC2 (UniProt Q9Y6X9)
inactive: [1] -0.068 | [2] 0.043 | [3] 0.049 | [4] -0.014 | [5] 0.018

MICALL1 (UniProt Q8N3F8)
inactive: [1] 0.031 | [2] 0.023 | [3] 0.049 | [4] -0.046 | [5] 0.018

MIB1 (UniProt Q86YT6)
inactive: [1] -0.007 | [2] -0.001 | [3] 0.082 | [4] -0.073 | [5] 0.05

MOB2 isoform 3 (UniProt Q70IA6)
inactive: [1] -0.099 | [2] -0.116 | [3] 0.127 | [4] 0.067 | [5] 0.044

MOB3B (UniProt Q86TA1)
inactive: [1] -0.061 | [2] 0.157 | [3] 0.187 | [4] 0.013 | [5] -0.014

MPST isoform 2 (UniProt P25325)
inactive: [1] -0.002 | [2] -0.012 | [3] -0.006 | [4] 0.008 | [5] -0.005

MOCS1 isoform 8 (UniProt Q9NZB8)
inactive: [1] -0.061 | [2] -0.044 | [3] 0.058 | [4] -0.017 | [5] 0.067

MITD1 (UniProt Q8WV92)
inactive: [1] -0.036 | [2] -0.038 | [3] -0.015 | [4] -0.026 | [5] 0.117

MRPL18 (UniProt Q9H0U6)
inactive: [3] 0.038 | [4] 0.001 | [5] -0.072

MRPL22 (UniProt Q9NWU5)
inactive: [5] 0.019

MGAT1 (UniProt P26572)
inactive: [3] -0.175 | [4] 0.044 | [5] 0.025

2 entries picked at random from those above:
MRPL22 (UniProt Q9NWU5)
inactive: [5] 0.019

MRPL18 (UniProt Q9H0U6)
inactive: [3] 0.038 | [4] 0.001 | [5] -0.072

Later entries.

MISP3 (UniProt Q96FF7)
inactive: [4] -0.281

MLYCD (UniProt O95822)
inactive: [1] 0.002 | [2] 0.047 | [4] -0.045 | [5] 0.004

MOB1A (UniProt Q9H8S9)
inactive: [3] -0.113
